The values that follow come from the supplement of paper PMC12873370.

Several values for one entry are separate records, joined by “and”; a condition that tells them apart may be missing. Identical values can stand only once. This is one part of the list. Most values come without repeats; read them as rough.

One assay relates to MEPP (mouse ovarian epithelium Trp53/Pten KO). The assay can be described thus: cell viability relative to untreated (fraction); higher = less growth inhibition. The following applies: 5 µM; 3 days.
`N[C@@H](Cc1ccc(O)c(Cl)c1)C(=O)O` showed a cell viability of 0.882.
Turning to `CC(C)(CC(=O)O)CC(=O)O`, the cell viability was found to be 1.03.
As for `Nc1c(O)cccc1C(=O)O`, the cell viability worked out at 0.943.
On to `Cc1cc(=O)c2c(O)c3c(cc2o1)OC(C)(C)[C@@H](O[C@@H]1O[C@H](CO)[C@@H](O)[C@H](O)[C@H]1O)C3`, for which the cell viability came out at 0.997.
The same measure, in the same setting: under `Nc1nccc(=O)[nH]1` stands 0.914; under `COc1cc(C(=O)OCCCCNC(=N)N)cc(OC)c1O`, 1.77; under `COc1nc2ccc(Br)cc2cc1[C@@H](c1ccccc1)[C@@](O)(CCN(C)C)c1cccc2ccccc12`, 0.78.
In turn, `C[C@]12CCC(=O)C=C1C=C[C@@H]1[C@@H]2CC[C@@]2(C)[C@H]1CC[C@@]21CCC(=O)O1` displayed a cell viability of 0.775.
Same read-out and setting: under `O=c1ccn(C2OC(CO)C(O)C2O)c(=O)[nH]1` (stereo not drawn) stands 0.902.
In the case of `CC(O)CO` (stereo not drawn), the cell viability came to 1.13.
Take `C[C@H]1[C@H](C)CC[C@]2(C(=O)O[C@@H]3O[C@H](CO[C@@H]4O[C@H](CO)[C@@H](O[C@@H]5O[C@H](C)[C@H](O)[C@@H](O)[C@H]5O)[C@H](O)[C@H]4O)[C@@H](O)[C@H](O)[C@H]3O)CC[C@]3(C)C(=CC[C@@H]4[C@@]5(C)C[C@@H](O)[C@H](O)[C@@](C)(CO)[C@@H]5CC[C@]43C)[C@H]12`: the cell viability was found to be 2.23.
Regarding `C=C1CC[C@@H]2[C@](C)(CO)[C@H](O)CC[C@@]2(C)[C@@H]1C/C=C1/C(=O)OC[C@H]1O`, the cell viability is 1.14.
For `C[n+]1cccc(C(N)=O)c1`, the cell viability amounted to 1.04.
For the compound `Oc1ccc(OCc2ccccc2)cc1`, the cell viability is 1.01.
As for `O=C1OC2(c3ccccc31)c1ccc(O)c(O)c1Oc1c2ccc(O)c1O`, the cell viability stood at 0.786.
In the case of `OC[C@H]1O[C@H](O[C@H]2[C@H](O)[C@@H](O)[C@@H](O[C@H]3[C@H](O)[C@@H](O)[C@@H](O)O[C@@H]3CO)O[C@@H]2CO)[C@H](O)[C@@H](O)[C@@H]1O`, the cell viability was 0.84.
Consider `C[C@@H]1C(=O)O[C@H]2C[C@@]34[C@H]5C[C@@H](C(C)(C)C)[C@]36[C@@H](OC(=O)[C@@H]6O)O[C@@]4(C(=O)O5)[C@]21O`, for which the cell viability is 1.22.
`C[C@H]1[C@@H](O)O[C@@H]2O[C@@]3(C)CC[C@H]4[C@H](C)CC[C@@H]1[C@@]24OO3`: the cell viability stood at 0.899.
Turning to `NC(=O)Cc1c[nH]c2ccccc12`, the cell viability was determined as 1.07.
Compound `COc1cccc2c1C(=O)c1c(O)c3c(c(O)c1C2=O)C[C@@](O)(C(=O)CO)C[C@@H]3O[C@H]1C[C@H](N)[C@@H](O)[C@H](C)O1` had a cell viability of 0.674.
Compound `Cc1noc(NS(=O)(=O)c2ccc(N)cc2)c1C` had a cell viability of 1.11.
Compound `CC(C)CCC[C@@H](C)[C@H]1CC[C@H]2[C@@H]3CC=C4C[C@@H](O)CC[C@]4(C)[C@H]3CC[C@]12C` displayed a cell viability of 1.19.
As for `Nc1cc[nH]c(=O)n1`, the cell viability was determined as 1.44.
In turn, `COc1cc(O)c2c(c1)oc(=O)c1c3cc(O)c(O)cc3oc21` came in with a cell viability of 1.
`Cc1cc(O)c2c(c1)C(=O)c1cc(O)cc(O)c1C2=O` came in with a cell viability of 1.11.
The compound `CN(C)CC(=O)O` came in with a cell viability of 1.05.
On the same count and under the same terms, as for `N=C(N)NCCC[C@H](N)C(=O)O`, the figure is 1.27; as for `Cn1cnc(N)c2ncnc1-2`, 1.06.
On to `COc1cc(O)cc(O)c1C(=O)/C=C/c1ccccc1`, for which the cell viability came to 0.864.
Take `Nc1ncnc2c1ncn2[C@@H]1O[C@@H]2COP(=O)(O)O[C@H]2[C@H]1O`: the cell viability was found to be 0.854.
As for `O=C(CCc1ccc(O)cc1)c1c(O)cc(O)cc1O`, the cell viability came to 1.09.
Regarding `CC(C)=CCC[C@](C)(O[C@@H]1O[C@H](CO[C@@H]2OC[C@H](O)[C@H](O)[C@H]2O)[C@@H](O)[C@H](O)[C@H]1O)[C@H]1CC[C@]2(C)[C@@H]1[C@H](O)C[C@@H]1[C@@]3(C)CC[C@H](O[C@@H]4O[C@H](CO)[C@@H](O)[C@H](O)[C@H]4O[C@@H]4O[C@H](CO)[C@@H](O)[C@H](O)[C@H]4O)C(C)(C)[C@@H]3CC[C@]12C`, the cell viability worked out at 0.975.
`CCCCC1OC(=O)c2ccccc21` (stereo not drawn) yielded a cell viability of 0.855.
The compound `COc1cc(CCC(=O)O)ccc1O` registered a cell viability of 1.04.
Turning to `CC1(C)S[C@@H]2[C@H](NC(=O)[C@H](N)c3ccccc3)C(=O)N2[C@H]1C(=O)O`, the cell viability was 1.08 and 1.13.
For the compound `O=C(O)C1=CO[C@@H](O[C@@H]2O[C@H](CO)[C@@H](O)[C@H](O)[C@H]2O)[C@H]2[C@@H]1C=C[C@]2(O)CO`, the cell viability stood at 0.951.
For the compound `COc1cc2c(=O)c3c(O)c([C@@H]4O[C@H](CO[C@@H]5OC[C@](O)(CO)[C@H]5O)[C@@H](O)[C@H](O)[C@H]4O)c(O)cc3oc2cc1O`, the cell viability was found to be 1.04.
Take `C=C(C)[C@@H]1CC[C@]2(C(=O)O)CC[C@]3(C)[C@H](CC[C@@H]4[C@@]5(C)CCC(=O)C(C)(C)[C@@H]5CC[C@]43C)[C@@H]12`: the cell viability stood at 1.16.
Consider `CN(C)c1ncnc2c1ncn2[C@@H]1O[C@H](CO)[C@@H](N)[C@H]1O`, for which the cell viability amounted to 1.04.

The next assay relates to PREPP (mouse prostate epithelium Trp53/Pten KO). The description is as above. The following applies: 5 µM; 3 days.
The compound `N[C@@H](Cc1ccc(O)c(Cl)c1)C(=O)O` gave a cell viability of 0.876.
As for `CC(C)(CC(=O)O)CC(=O)O`, the cell viability stood at 1.08.
The compound `Nc1c(O)cccc1C(=O)O` displayed a cell viability of 0.892.
The same measure, in the same setting: as for `Cc1cc(=O)c2c(O)c3c(cc2o1)OC(C)(C)[C@@H](O[C@@H]1O[C@H](CO)[C@@H](O)[C@H](O)[C@H]1O)C3`, the figure is 1.05; as for `Nc1nccc(=O)[nH]1`, 1.
The compound `COc1cc(C(=O)OCCCCNC(=N)N)cc(OC)c1O` displayed a cell viability of 1.01.
Take `COc1nc2ccc(Br)cc2cc1[C@@H](c1ccccc1)[C@@](O)(CCN(C)C)c1cccc2ccccc12`: the cell viability was 0.863.
Same read-out and setting: as for `C[C@]12CCC(=O)C=C1C=C[C@@H]1[C@@H]2CC[C@@]2(C)[C@H]1CC[C@@]21CCC(=O)O1`, the figure is 0.826.
As to `O=c1ccn(C2OC(CO)C(O)C2O)c(=O)[nH]1` (stereo not drawn), the cell viability came to 1.09.
As for `CC(O)CO` (stereo not drawn), the cell viability came to 0.897.
Same read-out and setting: under `C[C@H]1[C@H](C)CC[C@]2(C(=O)O[C@@H]3O[C@H](CO[C@@H]4O[C@H](CO)[C@@H](O[C@@H]5O[C@H](C)[C@H](O)[C@@H](O)[C@H]5O)[C@H](O)[C@H]4O)[C@@H](O)[C@H](O)[C@H]3O)CC[C@]3(C)C(=CC[C@@H]4[C@@]5(C)C[C@@H](O)[C@H](O)[C@@](C)(CO)[C@@H]5CC[C@]43C)[C@H]12` stands 0.883; under `C=C1CC[C@@H]2[C@](C)(CO)[C@H](O)CC[C@@]2(C)[C@@H]1C/C=C1/C(=O)OC[C@H]1O`, 1.36.
`C[n+]1cccc(C(N)=O)c1` registered a cell viability of 0.978.
On to `Oc1ccc(OCc2ccccc2)cc1`, for which the cell viability came to 0.783.
The compound `O=C1OC2(c3ccccc31)c1ccc(O)c(O)c1Oc1c2ccc(O)c1O` came in with a cell viability of 0.896.
On the same count and under the same terms, as for `OC[C@H]1O[C@H](O[C@H]2[C@H](O)[C@@H](O)[C@@H](O[C@H]3[C@H](O)[C@@H](O)[C@@H](O)O[C@@H]3CO)O[C@@H]2CO)[C@H](O)[C@@H](O)[C@@H]1O`, the figure is 0.839; as for `C[C@@H]1C(=O)O[C@H]2C[C@@]34[C@H]5C[C@@H](C(C)(C)C)[C@]36[C@@H](OC(=O)[C@@H]6O)O[C@@]4(C(=O)O5)[C@]21O`, 1.07.
`C[C@H]1[C@@H](O)O[C@@H]2O[C@@]3(C)CC[C@H]4[C@H](C)CC[C@@H]1[C@@]24OO3`: the cell viability is 0.839.
Still for that read-out and setting: under `NC(=O)Cc1c[nH]c2ccccc12` stands 1.06; under `COc1cccc2c1C(=O)c1c(O)c3c(c(O)c1C2=O)C[C@@](O)(C(=O)CO)C[C@@H]3O[C@H]1C[C@H](N)[C@@H](O)[C@H](C)O1`, 0.43; under `Cc1noc(NS(=O)(=O)c2ccc(N)cc2)c1C`, 0.953.
The same measure, in the same setting: as for `CC(C)CCC[C@@H](C)[C@H]1CC[C@H]2[C@@H]3CC=C4C[C@@H](O)CC[C@]4(C)[C@H]3CC[C@]12C`, the figure is 1.01.
`Nc1cc[nH]c(=O)n1`: the cell viability worked out at 0.91.
The same measure, in the same setting: under `COc1cc(O)c2c(c1)oc(=O)c1c3cc(O)c(O)cc3oc21` stands 0.886; under `Cc1cc(O)c2c(c1)C(=O)c1cc(O)cc(O)c1C2=O`, 0.853; under `CN(C)CC(=O)O`, 1.09.
`N=C(N)NCCC[C@H](N)C(=O)O` displayed a cell viability of 1.07.
In turn, `Cn1cnc(N)c2ncnc1-2` registered a cell viability of 0.909.
Still for that read-out and setting: under `COc1cc(O)cc(O)c1C(=O)/C=C/c1ccccc1` stands 0.796.
`Nc1ncnc2c1ncn2[C@@H]1O[C@@H]2COP(=O)(O)O[C@H]2[C@H]1O` returned a cell viability of 0.984.
Regarding `O=C(CCc1ccc(O)cc1)c1c(O)cc(O)cc1O`, the cell viability stood at 0.849.
Same read-out and setting: under `CC(C)=CCC[C@](C)(O[C@@H]1O[C@H](CO[C@@H]2OC[C@H](O)[C@H](O)[C@H]2O)[C@@H](O)[C@H](O)[C@H]1O)[C@H]1CC[C@]2(C)[C@@H]1[C@H](O)C[C@@H]1[C@@]3(C)CC[C@H](O[C@@H]4O[C@H](CO)[C@@H](O)[C@H](O)[C@H]4O[C@@H]4O[C@H](CO)[C@@H](O)[C@H](O)[C@H]4O)C(C)(C)[C@@H]3CC[C@]12C` stands 0.99; under `CCCCC1OC(=O)c2ccccc21` (stereo not drawn), 1.08; under `COc1cc(CCC(=O)O)ccc1O`, 0.976.
Regarding `CC1(C)S[C@@H]2[C@H](NC(=O)[C@H](N)c3ccccc3)C(=O)N2[C@H]1C(=O)O`, the cell viability was 0.8 and 0.836.
With `O=C(O)C1=CO[C@@H](O[C@@H]2O[C@H](CO)[C@@H](O)[C@H](O)[C@H]2O)[C@H]2[C@@H]1C=C[C@]2(O)CO`, the cell viability worked out at 0.894.
Still for that read-out and setting: as for `COc1cc2c(=O)c3c(O)c([C@@H]4O[C@H](CO[C@@H]5OC[C@](O)(CO)[C@H]5O)[C@@H](O)[C@H](O)[C@H]4O)c(O)cc3oc2cc1O`, the figure is 0.995; as for `C=C(C)[C@@H]1CC[C@]2(C(=O)O)CC[C@]3(C)[C@H](CC[C@@H]4[C@@]5(C)CCC(=O)C(C)(C)[C@@H]5CC[C@]43C)[C@@H]12`, 0.909; as for `CN(C)c1ncnc2c1ncn2[C@@H]1O[C@H](CO)[C@@H](N)[C@H]1O`, 0.861.
